From PubChem BioAssay AID540256 (National Center for Advancing Translational Sciences (NCATS), 2011)
Out of some 300,000 compounds screened, about 3,700 (1.2%) were called active. Inconclusive means that the source gave no clear call. Such entries were picked first, then a sample of the others. Calls follow the shape of the full dose curve; tested in HEK293 cells. Potencies of inconclusive entries are doubtful fits and often do not repeat.

Assay: qHTS for Inhibitors of binding or entry into cells for Lassa Virus; also: nearly all actives have a fitted effect of over 50% in size
Conditions: Lassa virus pseudotype entry inhibition, cell reporter; series mostly up to 37.9 µM
Potency is read from the fitted curve at half-maximal effect.

Structure (SMILES) | Potency
Cn1c(N)c(C(=O)COC(=O)C2(c3ccc(Cl)cc3)CCCC2)c(=O)n(C)c1=O | inactive
CSc1n[nH]c(NCc2ccc(C)cc2)n1 | inconclusive: 18.3 µM [inhibitor, single point]
CCOc1ccc(NC(=O)Cn2cc(C(=O)C3CC3)c3ccccc32)cc1 | inconclusive: 3.16 µM [inhibitor, single point]
COc1ccc2nc(SCC(=O)N(C)C3CCCCC3)c(C#N)cc2c1 | inconclusive: 10.3 µM [inhibitor, partial curve, poor fit]
CCc1ccc(OCc2n[nH]c(=S)n2Cc2ccccc2)cc1 | inconclusive: 12.6 µM [inhibitor, single point]
CC1(C(=O)O)Cc2ccccc2C(=O)O1 (centres undefined) | inconclusive: 16.4 µM [activator, single point]
COc1ccc(NC(=O)CCCc2nnc3n(C(C)C)c(=O)c4sccc4n23)cc1Cl | inactive
Cc1ccc2c(CNCCc3ccco3)c(C(=O)O)n(Cc3ccc(F)cc3)c2c1 | inactive
CCOc1ccc(CN(CCc2ccc3c(c2)OCO3)Cc2cc(OC)cc(OC)c2)cc1 | inactive
O=c1[nH]c(C2CCN(S(=O)(=O)c3cccc(C(F)(F)F)c3)CC2)nc2c1nnn2Cc1cccc(F)c1 | inconclusive: 10 µM [inhibitor, partial curve, poor fit]
CCN(CC)CCC=C(c1cccs1)c1cccs1 | inconclusive: 11.2 µM [inhibitor, partial curve]
NC(=NCCc1c[nH]c2ccccc12)NS(=O)(=O)c1ccc2ccccc2c1 | inconclusive: 16.4 µM [inhibitor, partial curve, poor fit]
COc1ccc(CC(=O)N[C@@H](C)C(=O)N2CCC3(CC2)NCCc2[nH]cnc23)cc1 | inactive
O=C(Nc1ccccc1)c1cc2ccccc2s1 | inconclusive: 17.8 µM [inhibitor, single point]
CC(=O)c1cccc(Nc2ccc3cc(S(=O)(=O)N4CCCC4)ccc3n2)c1 | inactive
CC1(C)Cc2c(sc3ncnc(NNC(=S)NCc4ccccc4)c23)CO1 | active: 0.116 µM
CCCn1c(=NC(=O)c2c(-c3c(F)cccc3Cl)noc2C)c(C(=O)OCC)cc2c(=O)n3ccccc3nc21 | inconclusive: 35.5 µM [activator, single point]
CCN1CCCC1CNCC(O)COc1ccc(C(C)(C)C)cc1C (centres undefined) | inactive
COC(=O)c1ccccc1NC(=O)CSc1nnc(-c2ccoc2C)n1C | inactive
COc1ccc(-n2c(=O)c3c4c(sc3n3c(SC(C)C)nnc23)COC(C(C)C)C4)cc1 (centres undefined) | inconclusive: 3.16 µM [activator, full curve, poor fit]
C1=C(CCNc2ncnc3c2[nH]c2ccccc23)CCCC1 | inconclusive: 14.1 µM [inhibitor, partial curve, poor fit]
Cc1ccccc1CSc1nc2c([nH]c3ccccc32)c(=O)n1C | inconclusive: 0.562 µM [inhibitor, full curve, poor fit]

Taken from the listing for reference:
Structure (SMILES) | Potency
CCN(CC)CCC=C(c1cccs1)c1cccs1 | inconclusive: 11.2 µM [inhibitor, partial curve]
NC(=NCCc1c[nH]c2ccccc12)NS(=O)(=O)c1ccc2ccccc2c1 | inconclusive: 16.4 µM [inhibitor, partial curve, poor fit]
COc1ccc(CC(=O)N[C@@H](C)C(=O)N2CCC3(CC2)NCCc2[nH]cnc23)cc1 | inactive

Later entries:

Structure (SMILES) | Potency
N/C(=N/O)c1nc(N2CCCC2)nc(N(c2ccccc2)c2ccccc2)n1 | inconclusive: 5.01 µM [inhibitor, partial curve]
CC1Cc2ccccc2N1S(=O)(=O)c1cccc(C(=O)OCC(=O)N2CCOCC2)c1 (centres undefined) | inactive
CN(C)CCNC(=O)c1ccc(Cn2c(=O)c3cccn3c3cccnc32)cc1 | inconclusive: 5.01 µM [activator, full curve]
Cn1nc(-c2ccc(N3CCCCC3)c(NC(=O)c3ccc(Cl)cc3)c2)c2ccccc2c1=O | inactive
COc1cc(Cl)c(C)cc1NC(=O)COc1ccc(C)nc1[N+](=O)[O-] | inconclusive: 1.26 µM [activator, full curve, poor fit]
CCNC(=O)NC(=O)C(C)Sc1nc2ccccc2c(=O)n1-c1cccnc1 (centres undefined) | inactive
COc1ccc(NC2CC(=O)N(c3ccccc3)C2=O)cc1 (centres undefined) | inconclusive: 3.55 µM [activator, full curve, poor fit]
CNC(=O)Nc1ccc(C2SCCS2)cc1 | inactive
CC1(C)CC(=O)C(C=Nc2ccccc2Sc2ccccc2)=C(O)C1 | inconclusive: 17.8 µM [inhibitor, partial curve, poor fit]
COc1ccc(-n2nc(C(=O)Nc3cccc(C)n3)c3c4ccccc4n(C)c3c2=O)cc1 | inactive
CC(C)CN(CC(C)C)CC(O)CN(c1ccccc1)S(=O)(=O)c1ccccc1[N+](=O)[O-] (centres undefined) | inconclusive: 25.1 µM [inhibitor, single point]
NC(=O)c1nsc(C(=O)N(Cc2ccccc2F)C(C(=O)NCC2CCCO2)c2ccc(F)cc2)c1N (centres undefined) | inconclusive: 22.4 µM [inhibitor, single point]
COc1cc(/C=N/NC(=O)NC2CCCCC2)ccc1O | inconclusive: 1.26 µM [inhibitor, partial curve, poor fit]
O=C(Nc1ccc(-c2nc3ccccc3[nH]2)cc1)c1ccco1 | inconclusive: 29.1 µM [inhibitor, single point]
Cc1cccc(NC(=O)c2oc3ccc(S(=O)(=O)N4CCC5(CC4)OCCO5)cc3c2C)c1C | inconclusive: 1.26 µM [inhibitor, full curve, poor fit]
O=C1C2CCCN2C(=S)N1c1cc(Cl)ccc1Cl (centres undefined) | inconclusive: 35.5 µM [inhibitor, single point]
COc1ccc(-n2nnc3c(=O)n(Cc4cccc(C)c4)cnc32)cc1 | inconclusive: 1.83 µM [inhibitor, full curve, poor fit]
O=C(Cn1ccc([N+](=O)[O-])n1)Nc1nc2ccccc2s1 | inconclusive: 7.08 µM [activator, partial curve]
CC(CNC(=O)c1ccc(-c2ccccc2)cc1)CN(C)C (centres undefined) | inactive
COc1ccc([N+](=O)[O-])c(S(=O)(=O)c2ccccc2)n1 | active: 7.08 µM
COc1ccc(C(=O)OCC(=O)c2ccc(C3CCCCC3)cc2)cc1 | active: 2.24 µM
Cc1ccc(/C(N)=N/OC(=O)/C=C/c2ccccc2)cc1 | inactive
